No constants are given. Whether binding was seen depends on the method and setting. In cells and extracts the contact can be indirect. Some results given as binding are weak or reduced against the parent protein; the word gives no strength. Tags and fused reporters may be left off the sequences shown.
Biological target: T1, His-TBK1 (Tank-Binding protein Kinase 1) (UniProt Q9UHD2)
T1 sequence: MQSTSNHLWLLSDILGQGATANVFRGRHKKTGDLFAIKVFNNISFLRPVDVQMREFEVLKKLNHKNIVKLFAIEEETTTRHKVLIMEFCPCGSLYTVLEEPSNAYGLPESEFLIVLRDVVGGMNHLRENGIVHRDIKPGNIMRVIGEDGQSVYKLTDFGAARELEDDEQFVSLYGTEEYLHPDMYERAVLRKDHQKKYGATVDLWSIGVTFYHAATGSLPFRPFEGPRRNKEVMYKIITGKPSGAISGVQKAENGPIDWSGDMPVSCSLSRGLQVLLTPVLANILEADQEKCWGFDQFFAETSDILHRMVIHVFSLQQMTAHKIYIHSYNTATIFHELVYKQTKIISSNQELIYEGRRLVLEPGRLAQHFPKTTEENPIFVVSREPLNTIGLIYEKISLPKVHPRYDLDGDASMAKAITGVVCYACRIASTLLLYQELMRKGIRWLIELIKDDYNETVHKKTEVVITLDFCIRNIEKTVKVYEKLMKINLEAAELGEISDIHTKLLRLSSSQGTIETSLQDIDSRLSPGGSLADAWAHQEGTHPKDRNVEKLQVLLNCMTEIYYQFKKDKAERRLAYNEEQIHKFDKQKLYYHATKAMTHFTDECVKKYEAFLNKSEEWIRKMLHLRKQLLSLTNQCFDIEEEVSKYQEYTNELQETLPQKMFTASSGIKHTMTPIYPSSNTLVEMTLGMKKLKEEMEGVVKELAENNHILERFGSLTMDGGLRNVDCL
Experiment: co-IP; STK38 and His-TBK1 cotransfected in HepG2 cells for 48 h; NP-40 lysis buffer (Hepes 30 mM, NaCl 100 mM, NP-40 0.5%, pH 7.4); 1 mg protein with anti-His antibody on Dynabeads overnight at 4 degrees; Western blot

Chains of the proteins cited; added tags and fusions are not shown. Lines headed by an entry give the natural chain unless they say otherwise; changes in a name come on top.
UniProt Q15208: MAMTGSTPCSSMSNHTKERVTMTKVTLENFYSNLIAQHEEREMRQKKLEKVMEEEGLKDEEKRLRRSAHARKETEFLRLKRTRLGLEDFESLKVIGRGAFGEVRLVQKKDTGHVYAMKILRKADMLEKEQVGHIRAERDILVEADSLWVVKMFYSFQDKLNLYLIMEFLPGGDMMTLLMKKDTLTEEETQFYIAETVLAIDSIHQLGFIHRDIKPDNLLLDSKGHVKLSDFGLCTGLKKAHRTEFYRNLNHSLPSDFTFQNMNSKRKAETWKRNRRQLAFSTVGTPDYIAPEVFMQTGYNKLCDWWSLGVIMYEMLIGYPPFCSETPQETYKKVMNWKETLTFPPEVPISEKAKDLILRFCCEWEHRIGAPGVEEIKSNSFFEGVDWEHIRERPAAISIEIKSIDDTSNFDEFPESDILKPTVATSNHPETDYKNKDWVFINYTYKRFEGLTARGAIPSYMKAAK

binding | Substance
binds | Myc-STK38 (serine/threonine kinase 38) (from UniProt Q15208 1-465) (enzyme)
no binding | STK38 T444A mutant (from UniProt Q15208 1-465) (enzyme)
